# Results from US20230321171A1, “ANTI-COCCIDIAL COMPOSITION COMPRISING MANGOSTEEN AND USES THEREOF” (CJ CHEILJEDANG CORPORATION, priority 2020, published 2023).
# Some results were stated once for a whole list of compounds, not compound by compound.
# Key:
# Eimeria tenella = assay: Protozoan (sporozoite) direct killing ability, Eimeria tenella; format: cell-based; details: tested 1 to 500 ppm; listed as diclazuril
# Description: (§1) In the present example, protozoan (sporozoite) direct killing ability evaluation was conducted against 3 representative Eimeria kinds known to be infected in most farms (E. tenella, E. acervulina, E. maxima).
# (§2) A certain amount of oocysts of each protozoan was put in a tube containing glass beads and pulverized, and then to remove the crushed oocyst cell wall and other debris, internal sporocysts were purified using the percoll density gradient, and washed with PBS solution. […]
# (§3) After reacting the mangosteen pericarp extract, epicatechin, alpha-mangostin, xanthone and anticoccidial agents, salinomycin and diclazuril (hereinafter, material) with 3 kinds of Eimeria protozoa at various concentrations of 1 to 500 ppm, respectively, only alive protozoa (sporozoites) were counted through microscopic observation. Then, the death rate (%) of the protozoa when each material was treated compared to the PBS-treated negative control group was calculated and shown in Table 8 to Table 10 and Table 12, respectively, and the minimum concentration which directly killed the protozoa by 100% was shown in Table 11 below.
# Eimeria maxima = assay: Protozoan (sporozoite) direct killing ability, Eimeria maxima; format: cell-based; details: tested 1 to 500 ppm; listed as diclazuril
# Description: as §1, §2, §3
structure (smiles),measurement,setting,value
"N#CC(c1ccc(Cl)cc1)c1c(Cl)cc(-n2ncc(=O)[nH]c2=O)cc1Cl (centres unmarked) [Diclazuril, diclazuril]","Minimum concentration for killing 100% protozoa (ppm), Eimeria tenella",Eimeria tenella,> 500 ppm
same,"Minimum concentration for killing 100% protozoa (ppm), Eimeria maxima",Eimeria maxima,> 500 ppm
